Test [1] deals with T1, UltraID_ZFP36L1 (UltraID fused to the N-terminus of ZFP36L1, co-expressed with GFP through P2A) (UniProt Q07352).
T1 sequence: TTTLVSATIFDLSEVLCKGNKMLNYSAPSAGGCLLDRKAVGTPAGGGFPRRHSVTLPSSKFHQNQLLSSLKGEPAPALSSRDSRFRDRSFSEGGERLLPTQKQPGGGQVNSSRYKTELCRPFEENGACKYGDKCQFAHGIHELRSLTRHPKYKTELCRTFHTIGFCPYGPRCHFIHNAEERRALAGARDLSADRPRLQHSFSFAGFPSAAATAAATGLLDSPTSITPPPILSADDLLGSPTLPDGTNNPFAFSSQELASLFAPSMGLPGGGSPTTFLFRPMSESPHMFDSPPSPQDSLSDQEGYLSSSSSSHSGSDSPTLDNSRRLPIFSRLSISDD
The test can be described thus: proximity labelling; time course: UltraID_L1 T cells re-activated with αCD3/αCD28 for 0, 2, 5, 16 h; biotin added for 2 h, for 3 h (2-5 h) or for 9 h (5-16 h); streptavidin capture, MS; supervised classification into shapes.

Test [2] addresses T1, UltraID_ZFP36L1 (UltraID fused to the N-terminus of ZFP36L1, co-expressed with GFP through P2A). Put plainly: proximity labelling; UltraID_L1 in retrovirally transduced primary human T cells, rested or re-activated 16 h with αCD3/αCD28, with or without 500 μM biotin; biotinylated proteins captured from lysate on streptavidin beads and identified by MS; controls UltraID_GFP and no biotin; T cell screens 1 and 2 (the network of Fig 3A also draws on the Jurkat screen).

No constants are given. Whether binding was seen depends on the method and setting. In cells and extracts the contact can be indirect. These calls come from enrichment with a bait or labelling near it, and not all partners need be listed. Sequences can lack the tags named with a protein.

B1: DCP1B (protein, UniProt Q8IZD4 1-617)
chain: MAAVAAGGLVGKGRDISLAALQRHDPYINRIVDVASQVALYTFGHRANEWEKTDVEGTLFVYTRSASPKHGFTIMNRLSMENRTEPITKDLDFQLQDPFLLYRNARLSIYGIWFYDKEECQRIAELMKNLTQYEQLKAHQGTGAGISPVILNSGEGKEVDILRMLIKAKDEYTKCKTCSEPKKITSSSAIYDNPNLIKPIPVKPSENQQQRIPQPNQTLDPEPQHLSLTALFGKQDKATCQETVEPPQTLHQQQQQQQQQQEKLPIRQGVVRSLSYEEPRRHSPPIEKQLCPAIQKLMVRSADLHPLSELPENRPCENGSTHSAGEFFTGPVQPGSPHNIGTSRGVQNASRTQNLFEKLQSTPGAANKCDPSTPAPASSAALNRSRAPTSVTPVAPGKGLAQPPQAYFNGSLPPQTVGHQAHGREQSTLPRQTLPISGSQTGSSGVISPQELLKKLQIVQQEQQLHASNRPALAAKFPVLAQSSGTGKPLESWINKTPNTEQQTPLFQVISPQRIPATAAPSLLMSPMVFAQPTSVPPKERESGLLPVGGQEPPAAATSLLLPIQSPEPSVITSSPLTKLQLQEALLYLIQNDDNFLNIIYEAYLFSMTQAAMKKTM
Regarding B1, the binding result in test [1] and in test [2] was “binds” in each case.

B2: GIGYF2 (protein, UniProt Q6Y7W6 1-1299)
chain: MAAETQTLNFGPEWLRALSSGGSITSPPLSPALPKYKLADYRYGREEMLALFLKDNKIPSDLLDKEFLPILQEEPLPPLALVPFTEEEQRNFSMSVNSAAVLRLTGRGGGGTVVGAPRGRSSSRGRGRGRGECGFYQRSFDEVEGVFGRGGGREMHRSQSWEERGDRRFEKPGRKDVGRPNFEEGGPTSVGRKHEFIRSESENWRIFREEQNGEDEDGGWRLAGSRRDGERWRPHSPDGPRSAGWREHMERRRRFEFDFRDRDDERGYRRVRSGSGSIDDDRDSLPEWCLEDAEEEMGTFDSSGAFLSLKKVQKEPIPEEQEMDFRPVDEGEECSDSEGSHNEEAKEPDKTNKKEGEKTDRVGVEASEETPQTSSSSARPGTPSDHQSQEASQFERKDEPKTEQTEKAEEETRMENSLPAKVPSRGDEMVADVQQPLSQIPSDTASPLLILPPPVPNPSPTLRPVETPVVGAPGMGSVSTEPDDEEGLKHLEQQAEKMVAYLQDSALDDERLASKLQEHRAKGVSIPLMHEAMQKWYYKDPQGEIQGPFNNQEMAEWFQAGYFTMSLLVKRACDESFQPLGDIMKMWGRVPFSPGPAPPPHMGELDQERLTRQQELTALYQMQHLQYQQFLIQQQYAQVLAQQQKAALSSQQQQQLALLLQQFQTLKMRISDQNIIPSVTRSVSVPDTGSIWELQPTASQPTVWEGGSVWDLPLDTTTPGPALEQLQQLEKAKAAKLEQERREAEMRAKREEEERKRQEELRRQQEEILRRQQEEERKRREEEELARRKQEEALRRQREQEIALRRQREEEERQQQEEALRRLEERRREEEERRKQEELLRKQEEEAAKWAREEEEAQRRLEENRLRMEEEAARLRHEEEERKRKELEVQRQKELMRQRQQQQEALRRLQQQQQQQQLAQMKLPSSSTWGQQSNTTACQSQATLSLAEIQKLEEERERQLREEQRRQQRELMKALQQQQQQQQQKLSGWGNVSKPSGTTKSLLEIQQEEARQMQKQQQQQQQHQQPNRARNNTHSNLHTSIGNSVWGSINTGPPNQWASDLVSSIWSNADTKNSNMGFWDDAVKEVGPRNSTNKNKNNASLSKSVGVSNRQNKKVEEEEKLLKLFQGVNKAQDGFTQWCEQMLHALNTANNLDVPTFVSFLKEVESPYEVHDYIRAYLGDTSEAKEFAKQFLERRAKQKANQQRQQQQLPQQQQQQPPQQPPQQPQQQDSVWGMNHSTLHSVFQTNQSNNQQSNFEAVQSGKKKKKQKMVRADPSLLGFSVNASSERLNMGEIETLDDY
B2: the binding result in test [1] and in test [2] was “binds” throughout.

Source of the values: PMC13558869.
